{"sequences": {"note": "Chains of the proteins cited; added tags and fusions are not shown. Residues count along the entry.", "UniProt Q61362, residues 30-389": "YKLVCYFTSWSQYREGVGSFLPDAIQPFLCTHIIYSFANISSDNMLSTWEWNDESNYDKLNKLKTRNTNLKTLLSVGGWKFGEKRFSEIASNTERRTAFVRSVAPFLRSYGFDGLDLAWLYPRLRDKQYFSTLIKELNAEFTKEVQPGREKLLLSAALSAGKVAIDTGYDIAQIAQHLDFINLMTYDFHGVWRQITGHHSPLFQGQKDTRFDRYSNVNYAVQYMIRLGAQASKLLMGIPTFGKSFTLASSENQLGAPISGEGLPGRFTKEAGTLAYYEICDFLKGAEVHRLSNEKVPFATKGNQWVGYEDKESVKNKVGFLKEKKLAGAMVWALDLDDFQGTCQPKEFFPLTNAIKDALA"}, "source": "patent US20220340649A1", "about": "(SENELIX, published 2022)", "key": {"[1]": {"molecular_target": "mouse YKL-40 (mouse) (UniProt Q61362)", "assay": "phage ELISA on immobilized mYKL-40 (30 ng per well), anti-M13-HRP"}, "[2]": {"molecular_target": "mouse YKL-40 (mouse) (UniProt Q61362)", "assay": "ELISA with the Fab protein"}}, "note": "These are yes or no findings as the source states them, for the method shown. Some results given as binding are weak or reduced against the parent protein; the word gives no strength.", "data": [{"binder": "4E3-F2 (M3) Fab (Fab, V domains shown, Fab from the Fab-II phage library; also called Fab protein of 4E3-F2 (M3)) VH: QVQLVQSGAEVKKPGSSVKVSCKASGGTFSSYDIHWVRQAPGQGLEWMGIISPYLGITIYAQKFQGRVTITADESTSTAYMELSSLRSEDTAVYYCARRYFYYQSEAFDYWGQGTLVTVSS VL: DIQMTQSPSSLSASVGDRVTITCRASQSISNYLNWYQQKPGKAPKLLIYAASTLQSGVPSRFSGSGSGTDFTLTISSLQPEDFATYYCQQSYSFPLTFGQGTKVEIK", "values": [{"measurement": "binding", "setting": "[1]", "value": "binds"}, {"measurement": "binding", "setting": "[2]", "value": "binds"}]}]}
